Holding throughout (assay): EMSA
The test system of one data set is HUα + HUβ(K67ac). Conditions: heterodimer, no significant change versus HUαβ (p > 0.15); 2-nt gap in bottom strand; 30 mM Tris pH 7.5, 100 mM NaCl, 0.02% Tween20, 0.5 mg/ml BSA; 30-bp DNA 1 µM, 18°C 10 min, 10% PAGE in TBE; long DNA 250 ng in 15 µL, 37°C 1 h, 0.5% agarose in TAE; recombinant protein; protein details: C-terminal 6xHis,C-terminal 6xHis.
In another data set the test system is HUα + HUβ(K86ac). Conditions: heterodimer, 30 mM Tris pH 7.5, 100 mM NaCl, 0.02% Tween20, 0.5 mg/ml BSA, 30-bp DNA 1 µM, 18°C 10 min, 10% PAGE in TBE, long DNA 250 ng in 15 µL, 37°C 1 h, 0.5% agarose in TAE, recombinant protein, protein details: C-terminal 6xHis,C-terminal 6xHis.
Data set [1] has as its target HUβ(K67ac) (Escherichia coli BL21(DE3)) (UniProt P0ACF4). Conditions: homodimer, profile very similar to HUβ2; 2-nt gap in bottom strand; 30 mM Tris pH 7.5, 100 mM NaCl, 0.02% Tween20, 0.5 mg/ml BSA; 30-bp DNA 1 µM, 18°C 10 min, 10% PAGE in TBE; long DNA 250 ng in 15 µL, 37°C 1 h, 0.5% agarose in TAE; recombinant protein; residues 1-90; protein details: C-terminal 6xHis.

By UniProt entry, the sequences of proteins in these tests, tags left out. Where a name states a change or a piece, a line headed by the entry shows the natural chain unless it says otherwise.
UniProt P0ACF4: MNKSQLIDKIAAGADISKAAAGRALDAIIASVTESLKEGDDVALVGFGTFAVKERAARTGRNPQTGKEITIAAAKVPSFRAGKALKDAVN

In data set [2] the target is HUβ(K86ac) (Escherichia coli BL21(DE3)) (UniProt P0ACF4). Conditions: homodimer, lower affinity than HUβ2; nick in bottom strand; 30 mM Tris pH 7.5, 100 mM NaCl, 0.02% Tween20, 0.5 mg/ml BSA; 30-bp DNA 1 µM, 18°C 10 min, 10% PAGE in TBE; long DNA 250 ng in 15 µL, 37°C 1 h, 0.5% agarose in TAE; recombinant protein; residues 1-90; protein details: C-terminal 6xHis.

These results are taken from PMC8854993, “Acetylation at Lysine 86 of Escherichia coli HUβ Modulates the DNA-Binding Capability of the Protein” (Frontiers in Microbiology, 2021).

The exact form of at least one protein or probe is not confirmed. For some assays here: The comparison behind a weaker result is the experiment's own reference, which may not be listed here. For some assays here: At least one verdict was read from the data and is not stated in words by the source.

With “CCAACTTCCCTAACCCAGCTGCGATCCGTA / TACGGATCGCAGC / GGTTAGGGAAGTTGG [30-bp duplex with 2-nt gap]”, the binding result is “binds” with HUα + HUβ(K67ac); “binds” in the data set with HUα + HUβ(K86ac) (no significant change versus HUαβ (p > 0.15), 2-nt gap in bottom strand); “binds” in data set [1].
As to “CCAACTTCCCTAACCCAGCTGCGATCCGTA / TACGGATCGCAGC / TGGGTTAGGGAAGTTGG [30-bp duplex with nick]”, the binding result in the data set with HUα + HUβ(K86ac) (no significant difference from HUαβ, nick in bottom strand) is “binds”; in data set [2], “binds more weakly”.
